Record: PubChem BioAssay AID1508597 (Cure First, 2020)
Assay: 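Genes whose silencing sensitises or protects ovarian cancer cells against rucaparib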 (primary screen). Cells: human ovarian carcinoma lines grown from tumours: OCI-P5x (papillary serous) and OCI-C5x (clear cell). Reagent: siRNA pool against human genes, 1.25 pmol siRNA per well. Timing: 72 h or 96 h, depending on the cell culture. Challenge: rucaparib 20 µM (about IC30) or vehicle, present until read-out. Rucaparib or vehicle: Vehicle. Cell line: OCI-P5x (serous). Read-out: 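Luminescent ATP-based viability assay read 72 or 96 h after transfection, depending on culture, given as normalised percent viability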. Scale: viability, normalised: higher = more viable cells remaining. Active means: 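a well counts as a hit if its normalised viability is under 80 percent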. Meaning of the calls: active = viability under 80%; inactive = viability 80% or more.
Shown is a random part of the about 2,100 reagents, under one of the conditions tested. 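Calls flag viability under 80% in either arm, not effects specific to rucaparib; the reference for percent is not stated.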 Some reagents were tested in more than one well and are listed for each. Not given: the 100% reference.

gene symbol,technical replicate,"viability, normalised (%)",activity call
SOX6 (SRY-box transcription factor 6),1,35.3,active
SOX6 (SRY-box transcription factor 6),2,59.7,active
SOX6 (SRY-box transcription factor 6),3,38.9,active
TXK (TXK tyrosine kinase),1,68.8,active
TXK (TXK tyrosine kinase),1,67.5,active
TXK (TXK tyrosine kinase),2,76.6,active
TXK (TXK tyrosine kinase),2,70.3,active
TXK (TXK tyrosine kinase),3,75,active
TXK (TXK tyrosine kinase),3,69.5,active
PRKAG2 (protein kinase AMP-activated non-catalytic subunit gamma 2),1,64.8,active
PRKAG2 (protein kinase AMP-activated non-catalytic subunit gamma 2),1,63.3,active
PRKAG2 (protein kinase AMP-activated non-catalytic subunit gamma 2),2,71.6,active
PRKAG2 (protein kinase AMP-activated non-catalytic subunit gamma 2),2,75.2,active
PRKAG2 (protein kinase AMP-activated non-catalytic subunit gamma 2),3,67.1,active
PRKAG2 (protein kinase AMP-activated non-catalytic subunit gamma 2),3,94.1,inactive
DAPK1 (death associated protein kinase 1),1,120,inactive
DAPK1 (death associated protein kinase 1),2,101,inactive
DAPK1 (death associated protein kinase 1),3,124,inactive
DHX16 (DEAH-box helicase 16),1,56.6,active
DHX16 (DEAH-box helicase 16),2,67.3,active
DHX16 (DEAH-box helicase 16),3,61.6,active
"MYSM1 (Myb like, SWIRM and MPN domains 1)",1,68.5,active
"MYSM1 (Myb like, SWIRM and MPN domains 1)",2,61.5,active
"MYSM1 (Myb like, SWIRM and MPN domains 1)",3,87.9,inactive
SGK1 (serum/glucocorticoid regulated kinase 1),1,93.5,inactive
SGK1 (serum/glucocorticoid regulated kinase 1),2,85.3,inactive
SGK1 (serum/glucocorticoid regulated kinase 1),3,74.1,active
MAK (male germ cell associated kinase),1,105,inactive
MAK (male germ cell associated kinase),2,94.6,inactive
MAK (male germ cell associated kinase),3,110,inactive
RAD51B (RAD51 paralog B),1,87.6,inactive
RAD51B (RAD51 paralog B),2,104,inactive
RAD51B (RAD51 paralog B),3,91.4,inactive
EFNA5 (ephrin A5),1,61.4,active
EFNA5 (ephrin A5),2,79.2,active
EFNA5 (ephrin A5),3,76.8,active
ATXN7L3 (ataxin 7 like 3),1,57.4,active
ATXN7L3 (ataxin 7 like 3),2,60.5,active
ATXN7L3 (ataxin 7 like 3),3,73.9,active
ERBB3 (erb-b2 receptor tyrosine kinase 3),1,72.9,active
ERBB3 (erb-b2 receptor tyrosine kinase 3),2,43.5,active
ERBB3 (erb-b2 receptor tyrosine kinase 3),3,59.2,active
SPAG11B (sperm associated antigen 11B),1,70.9,active
SPAG11B (sperm associated antigen 11B),2,55.8,active
SPAG11B (sperm associated antigen 11B),3,48.1,active
MAGI1,1,86,inactive
MAGI1,2,76.3,active
MAGI1,3,64.9,active
PTEN (phosphatase and tensin homolog),1,83.3,inactive
PTEN (phosphatase and tensin homolog),2,78,active
PTEN (phosphatase and tensin homolog),3,74.7,active
SULT1A2 (sulfotransferase family 1A member 2),1,57.1,active
SULT1A2 (sulfotransferase family 1A member 2),2,52,active
SULT1A2 (sulfotransferase family 1A member 2),3,47.4,active
GDPD1 (glycerophosphodiester phosphodiesterase domain containing 1),1,73.5,active
GDPD1 (glycerophosphodiester phosphodiesterase domain containing 1),2,81.8,inactive
GDPD1 (glycerophosphodiester phosphodiesterase domain containing 1),3,76.3,active
SBDS (SBDS ribosome maturation factor),1,79.1,active
SBDS (SBDS ribosome maturation factor),2,64.9,active
SBDS (SBDS ribosome maturation factor),3,70,active
PIK3CB,1,48,active
PIK3CB,2,48.4,active
PIK3CB,3,52.5,active
"JUN (Jun proto-oncogene, AP-1 transcription factor subunit)",1,80.6,inactive
"JUN (Jun proto-oncogene, AP-1 transcription factor subunit)",2,99.1,inactive
"JUN (Jun proto-oncogene, AP-1 transcription factor subunit)",3,124,inactive
DPH2 (diphthamide biosynthesis 2),1,65.8,active
DPH2 (diphthamide biosynthesis 2),2,66,active
DPH2 (diphthamide biosynthesis 2),3,67.6,active
PIP5K1A (phosphatidylinositol-4-phosphate 5-kinase type 1 alpha),1,83.2,inactive
PIP5K1A (phosphatidylinositol-4-phosphate 5-kinase type 1 alpha),2,65.8,active
PIP5K1A (phosphatidylinositol-4-phosphate 5-kinase type 1 alpha),3,55.8,active
RIOX2 (ribosomal oxygenase 2),1,60.7,active
RIOX2 (ribosomal oxygenase 2),2,77.5,active
RIOX2 (ribosomal oxygenase 2),3,68.8,active

Records listed so far whose gene name starts with D or d:
gene symbol,technical replicate,"viability, normalised (%)",activity call
DAPK1 (death associated protein kinase 1),1,120,inactive
DAPK1 (death associated protein kinase 1),2,101,inactive
DAPK1 (death associated protein kinase 1),3,124,inactive
DHX16 (DEAH-box helicase 16),1,56.6,active
DHX16 (DEAH-box helicase 16),2,67.3,active
DHX16 (DEAH-box helicase 16),3,61.6,active
DPH2 (diphthamide biosynthesis 2),1,65.8,active
DPH2 (diphthamide biosynthesis 2),2,66,active
DPH2 (diphthamide biosynthesis 2),3,67.6,active
